For at least one compound, name, drawing or mass did not settle the structure. Some of these results come from one statement about several compounds together.
Assays:
Assay type in all cases: cell-based
[1] = tested on: putrefying bacteria in cooked rice; assay: Viable cell numbers in prepared food after spraying (Test Example 3); conditions: sprayed after 5 hours
From the text: (§1) With regards to the putrefaction process of prepared food, we investigated whether or not the present bactericidal disinfectant could stop the progress of putrefaction when sprayed of food, and the degree of that bactericidal effect. Normally disinfectants are not applied to prepared food, but very often scraps of food become lodged in a periodontal pocket, providing a nutritional source for bacteria, and since the present bactericidal disinfectant is composed of compounds which are recognized as food additives, it is important to assess these effects. Just-prepared cooked rice, tofu (soybean curd), spinach with sesame dressing, and fried meat and vegetables were each crushed, homogenized, and left at 28° C. for use as the samples. After samples had been left for 5 hours, part of each was taken and used to measure bacterial viable cell number, while the respective disinfectants were sprayed uniformly on the remaining samples. Viable cell numbers were measured 1, 2 and 24 hours after spraying. Water alone was sprayed as a control. After samples had been left for 24 hours part of each was taken for measuring viable cell number, and the respective disinfectants were sprayed uniformly on the remaining samples. As when the samples were left for 5 hours, viable cell numbers were measured 1 hour, 2 hours and 24 hours after spraying. Water alone was sprayed as a control. Viable cell numbers were measured by the poured plate method using 5 g of each sample diluted by ordinary methods.
(§2) The degree of putrefaction of course differs depending on the preparation method, ingredients and environment, but in the case of the cooked rice in this experiment, the viable cell number immediately after preparation was […] cells/g of sample, rising to 1×10^3 cells/g of sample after 5 hours, 5×10^5 cells/g of sample after 24 hours and 7×10^6 cells/g of sample after 48 hours. In the case of the tofu (soybean curd), the initial viable cell number was 2×10^4 cells/g of sample, rising to 8×10^5 cells/g of sample after 5 hours, 9×10^7 cells/g of sample after 24 hours, and 1×10^9 cells/g of sample after 48 hours, with considerable putrefaction. In the case of the spinach with sesame dressing, the viable cell number was 2×10^3 cells/g of sample immediately after preparation, rising to 5×10^4 cells/g of sample after 5 hours, 3×10^7 cells/g of sample after 24 hours and 2×10^8 cells/g of sample after 48 hours. In the case of the fried meat and vegetables, it was […] cells/g of sample immediately after preparation, rising to 2×10^3 cells/g of sample after 5 hours and 2×10^8 cells/g of sample after 24 hours, at which point there was a slight smell of putrefaction, while after 48 hours putrefaction has progressed still further and the viable cell number had risen to 3×10^9 cells/g of sample.

[2] = tested on: putrefying bacteria in fried meat and vegetables; assay: as above; conditions: sprayed after 5 hours
From the text: as §1, §2

[3] = tested on: putrefying bacteria in spinach with sesame dressing; assay: as above; conditions: sprayed after 5 hours
From the text: as §1, §2

[4] = tested on: putrefying bacteria in tofu (soybean curd); assay: as above; conditions: sprayed after 5 hours
From the text: as §1, §2

[5] = tested on: plaque adhering to supragingival calculus; assay: Viable cell numbers in plaque soaked in disinfectant (Test Example 4)

N=C(NCCCCCCNC(=N)NC(=N)Nc1ccc(Cl)cc1)NC(=N)Nc1ccc(Cl)cc1 [Hibitane]
viable cell number ([1]; 1 hr after spraying): 5 × 10^ cells/g of sample
viable cell number ([1]; 2 hrs after spraying): 2 × 10^ cells/g of sample
viable cell number ([1]; 24 hrs after spraying): 5 × 10^ cells/g of sample
viable cell number ([2]; 1 hr after spraying): 5 × 10^ cells/g of sample
viable cell number ([2]; 2 hrs after spraying): 3 × 10^ cells/g of sample
viable cell number ([3]; 1 hr after spraying): 4 × 10^ cells/g of sample
viable cell number ([3]; 2 hrs after spraying): 3 × 10^ cells/g of sample
viable cell number ([4]; 1 hr after spraying): 5 × 10^ cells/g of sample
viable cell number ([4]; 2 hrs after spraying): 4 × 10^ cells/g of sample
time to eradicate most bacteria on the surface of the plaque [5]: ≤ 3 min
